≈ marks a conversion by molar mass, not a printed value.
Assays:
[1] = physchem; conditions: buffer, pH 7.4
[2] = physchem; conditions: octanol/water, pH 7.4
[3] = physchem; conditions: buffer, pH 3

SMILES	solubility kinetic at 15 h, 500 µM [1] [µg/mL]	logD at 2 h, 1 µM [2]	solubility kinetic at 15 h, 500 µM [3] [µg/mL]
CNS(=O)(=O)c1ccc(-c2ccc(O[C@H]3O[C@H](CO)[C@@H](O)[C@H](O)[C@@H]3O)cc2)cc1	> 250	0.7	
OC[C@H]1O[C@H](Oc2ccc(-c3ccc(-c4nnn[nH]4)cc3)cc2)[C@@H](O)[C@@H](O)[C@@H]1O	273 (≈ 682 µM)	-1.4	> 150

Source: ChEMBL document CHEMBL3414523, “FimH antagonists: bioisosteres to improve the in vitro and in vivo PK/PD profile” (J Med Chem, 2015)
